Drawing on PMC9792466, this text covers binding for one substance.

Sequences of proteins named here, by UniProt entry; tags and fusion partners are left off.
UniProt Q8BUN5: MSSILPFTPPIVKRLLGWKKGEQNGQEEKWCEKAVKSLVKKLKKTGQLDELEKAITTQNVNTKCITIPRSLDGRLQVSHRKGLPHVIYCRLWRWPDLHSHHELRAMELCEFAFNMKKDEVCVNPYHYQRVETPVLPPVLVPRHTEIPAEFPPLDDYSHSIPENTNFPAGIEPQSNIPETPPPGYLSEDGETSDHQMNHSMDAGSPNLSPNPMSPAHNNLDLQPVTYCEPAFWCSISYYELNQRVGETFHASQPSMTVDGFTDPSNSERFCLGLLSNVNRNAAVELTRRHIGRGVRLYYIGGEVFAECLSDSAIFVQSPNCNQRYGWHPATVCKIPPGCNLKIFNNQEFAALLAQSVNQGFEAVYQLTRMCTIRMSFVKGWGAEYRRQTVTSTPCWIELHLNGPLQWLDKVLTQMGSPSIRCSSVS

This experiment addresses T1, WW domain-containing oxidoreductase (WWOX) (mouse (endogenous in 266-6)) (UniProt Q91WL8).
T1 sequence: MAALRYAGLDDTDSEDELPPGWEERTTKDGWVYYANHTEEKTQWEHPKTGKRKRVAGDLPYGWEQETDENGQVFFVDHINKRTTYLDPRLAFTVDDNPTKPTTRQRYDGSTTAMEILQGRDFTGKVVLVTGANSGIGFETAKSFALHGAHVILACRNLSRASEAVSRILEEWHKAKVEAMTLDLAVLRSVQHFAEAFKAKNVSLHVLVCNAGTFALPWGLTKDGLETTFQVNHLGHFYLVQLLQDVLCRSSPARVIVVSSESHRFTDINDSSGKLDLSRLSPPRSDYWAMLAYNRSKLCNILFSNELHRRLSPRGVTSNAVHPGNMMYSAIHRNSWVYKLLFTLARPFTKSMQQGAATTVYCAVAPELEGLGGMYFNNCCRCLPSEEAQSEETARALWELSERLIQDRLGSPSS
Description: co-IP; endogenous WWOX immunoprecipitated with monoclonal mouse anti-WWOX cocktail antibodies and protein A/G plus agarose beads, overnight at 4 °C, from whole-cell lysates of 266-6 KrasG12D cells not activated or activated with doxycycline for 24 h; lysis buffer 50 mM Tris pH 7.5, 150 mM NaCl, 10% glycerol, 1% NP-40; IgG as control; immunoblot of the precipitate.

These are yes or no findings as the source states them, for the method shown. Binding seen in cells or lysates may run through a third protein. Some entries that bind do so weakly or less than the wild type.

In the case of SMAD3 (from UniProt Q8BUN5 1-425), the binding entry was “binds”.
